Test results from article PMC4396377.
These are yes or no findings as the source states them, for the method shown. In cells and extracts the contact can be indirect. Some results given as binding are weak or reduced against the parent protein; the word gives no strength. For part of these data: Sequences can lack the tags named with a protein.

By UniProt entry, the sequences of proteins in these tests, tags left out. Where a name states a change or a piece, a line headed by the entry shows the natural chain unless it says otherwise.
UniProt P49841: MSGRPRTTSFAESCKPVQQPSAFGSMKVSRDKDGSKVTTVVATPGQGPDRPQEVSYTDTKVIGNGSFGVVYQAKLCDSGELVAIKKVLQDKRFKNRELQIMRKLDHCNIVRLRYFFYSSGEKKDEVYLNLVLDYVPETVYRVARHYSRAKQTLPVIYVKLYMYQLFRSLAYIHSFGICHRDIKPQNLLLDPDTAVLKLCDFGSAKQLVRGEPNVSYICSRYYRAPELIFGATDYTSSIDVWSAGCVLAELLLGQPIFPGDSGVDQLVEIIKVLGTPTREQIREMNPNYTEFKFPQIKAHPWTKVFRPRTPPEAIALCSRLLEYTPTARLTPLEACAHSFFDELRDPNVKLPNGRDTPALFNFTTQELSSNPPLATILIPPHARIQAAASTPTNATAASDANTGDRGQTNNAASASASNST
UniProt Q8IUC6: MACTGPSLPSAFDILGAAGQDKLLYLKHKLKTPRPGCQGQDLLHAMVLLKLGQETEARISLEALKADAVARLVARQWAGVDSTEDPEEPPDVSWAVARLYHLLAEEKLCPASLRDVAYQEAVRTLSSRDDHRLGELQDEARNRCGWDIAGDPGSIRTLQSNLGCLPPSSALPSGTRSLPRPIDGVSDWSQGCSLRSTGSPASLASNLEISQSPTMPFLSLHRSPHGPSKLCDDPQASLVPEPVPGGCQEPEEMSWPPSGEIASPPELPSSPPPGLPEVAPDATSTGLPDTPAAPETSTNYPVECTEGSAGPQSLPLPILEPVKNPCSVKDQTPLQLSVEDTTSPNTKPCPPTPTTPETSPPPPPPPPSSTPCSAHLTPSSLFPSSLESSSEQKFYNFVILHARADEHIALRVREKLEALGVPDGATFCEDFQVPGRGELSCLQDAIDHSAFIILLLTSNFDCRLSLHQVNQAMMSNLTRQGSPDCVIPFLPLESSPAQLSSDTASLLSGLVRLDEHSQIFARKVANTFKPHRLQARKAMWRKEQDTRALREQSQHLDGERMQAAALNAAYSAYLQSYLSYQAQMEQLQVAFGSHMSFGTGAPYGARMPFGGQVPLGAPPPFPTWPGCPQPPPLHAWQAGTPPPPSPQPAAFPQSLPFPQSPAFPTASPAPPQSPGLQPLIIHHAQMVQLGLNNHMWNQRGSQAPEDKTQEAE
UniProt Q9WV60: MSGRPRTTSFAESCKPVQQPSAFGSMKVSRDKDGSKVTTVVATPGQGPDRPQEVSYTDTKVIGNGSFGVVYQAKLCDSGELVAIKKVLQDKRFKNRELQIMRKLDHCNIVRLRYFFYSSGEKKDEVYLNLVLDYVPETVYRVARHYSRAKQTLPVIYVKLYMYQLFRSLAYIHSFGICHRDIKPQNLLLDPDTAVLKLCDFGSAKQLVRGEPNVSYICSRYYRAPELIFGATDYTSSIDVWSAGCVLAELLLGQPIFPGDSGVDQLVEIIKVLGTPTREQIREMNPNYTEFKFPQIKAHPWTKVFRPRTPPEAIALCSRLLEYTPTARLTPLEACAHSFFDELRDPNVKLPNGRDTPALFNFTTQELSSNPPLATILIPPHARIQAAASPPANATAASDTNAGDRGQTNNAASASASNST

B1: tumour necrosis factor (TNF) receptor-associated factor 6 (TRAF6), endogenous (protein, UniProt P70196 1-530)
chain: MSLLNCENSCGSSQSSSDCCAAMAASCSAAVKDDSVSGSASTGNLSSSFMEEIQGYDVEFDPPLESKYECPICLMALREAVQTPCGHRFCKACIIKSIRDAGHKCPVDNEILLENQLFPDNFAKREILSLTVKCPNKGCLQKMELRHLEDHQVHCEFALVNCPQCQRPFQKCQVNTHIIEDCPRRQVSCVNCAVSMAYEEKEIHDQSCPLANIICEYCGTILIREQMPNHYDLDCPTAPIPCTFSVFGCHEKMQRNHLARHLQENTQLHMRLLAQAVHNVNLALRPCDAASPSRGCRPEDPNYEETIKQLESRLVRQDHQIRELTAKMETQSMYVGELKRTIRTLEDKVAEMEAQQCNGIYIWKIGNFGMHLKSQEEERPVVIHSPGFYTGRPGYKLCMRLHLQLPTAQRCANYISLFVHTMQGEYDSHLPWPFQGTIRLTILDQSEALIRQNHEEVMDAKPELLAFQRPTIPRNPKGFGYVTFMHLEALRQGTFIKDDTLLVRCEVSTRFDMGGLRKEGFQPRSTDAGV
B2: transforming growth factor β-activated kinase 1 (TAK1), endogenous (enzyme, UniProt Q62073 1-579)
chain: MSTASAASSSSSSSASEMIEAPSQVLNFEEIDYKEIEVEEVVGRGAFGVVCKAKWRAKDVAIKQIESESERKAFIVELRQLSRVNHPNIVKLYGACLNPVCLVMEYAEGGSLYNVLHGAEPLPYYTAAHAMSWCLQCSQGVAYLHSMQPKALIHRDLKPPNLLLVAGGTVLKICDFGTACDIQTHMTNNKGSAAWMAPEVFEGSNYSEKCDVFSWGIILWEVITRRKPFDEIGGPAFRIMWAVHNGTRPPLIKNLPKPIESLMTRCWSKDPSQRPSMEEIVKIMTHLMRYFPGADEPLQYPCQYSDEGQSNSATSTGSFMDIASTNTSNKSDTNMEQVPATNDTIKRLESKLLKNQAKQQSESGRLSLGASRGSSVESLPPTSEGKRMSADMSEIEARIVATAGNGQPRRRSIQDLTVTGTEPGQVSSRSSSPSVRMITTSGPTSEKPARSHPWTPDDSTDTNGSDNSIPMAYLTLDHQLQPLAPCPNSKESMAVFEQHCKMAQEYMKVQTEIALLLQRKQELVAELDQDEKDQQNTSRLVQEHKKLLDENKSLSTYYQQCKKQLEVIRSQQQKRQGTS
B3: Myc-TAK1 (enzyme, UniProt O43318 1-606)
chain: MSTASAASSSSSSSAGEMIEAPSQVLNFEEIDYKEIEVEEVVGRGAFGVVCKAKWRAKDVAIKQIESESERKAFIVELRQLSRVNHPNIVKLYGACLNPVCLVMEYAEGGSLYNVLHGAEPLPYYTAAHAMSWCLQCSQGVAYLHSMQPKALIHRDLKPPNLLLVAGGTVLKICDFGTACDIQTHMTNNKGSAAWMAPEVFEGSNYSEKCDVFSWGIILWEVITRRKPFDEIGGPAFRIMWAVHNGTRPPLIKNLPKPIESLMTRCWSKDPSQRPSMEEIVKIMTHLMRYFPGADEPLQYPCQYSDEGQSNSATSTGSFMDIASTNTSNKSDTNMEQVPATNDTIKRLESKLLKNQAKQQSESGRLSLGASRGSSVESLPPTSEGKRMSADMSEIEARIAATTAYSKPKRGHRKTASFGNILDVPEIVISGNGQPRRRSIQDLTVTGTEPGQVSSRSSSPSVRMITTSGPTSEKPTRSHPWTPDDSTDTNGSDNSIPMAYLTLDHQLQPLAPCPNSKESMAVFEQHCKMAQEYMKVQTEIALLLQRKQELVAELDQDEKDQQNTSRLVQEHKKLLDENKSLSTYYQQCKKQLEVIRSQQQKRQGTS
B4: Flag-TRAF6 (protein, UniProt P70196 1-530)
chain: B1 chain
B5: TAB1 (transfected) (protein, UniProt Q15750 1-504)
chain: MAAQRRSLLQSEQQPSWTDDLPLCHLSGVGSASNRSYSADGKGTESHPPEDSWLKFRSENNCFLYGVFNGYDGNRVTNFVAQRLSAELLLGQLNAEHAEADVRRVLLQAFDVVERSFLESIDDALAEKASLQSQLPEGVPQHQLPPQYQKILERLKTLEREISGGAMAVVAVLLNNKLYVANVGTNRALLCKSTVDGLQVTQLNVDHTTENEDELFRLSQLGLDAGKIKQVGIICGQESTRRIGDYKVKYGYTDIDLLSAAKSKPIIAEPEIHGAQPLDGVTGFLVLMSEGLYKALEAAHGPGQANQEIAAMIDTEFAKQTSLDAVAQAVVDRVKRIHSDTFASGGERARFCPRHEDMTLLVRNFGYPLGEMSQPTPSPAPAAGGRVYPVSVPYSSAQSTSKTSVTLSLVMPSQGQMVNGAHSASTLDEATPTLTNQSPTLTLQSTNTHTQSSSSSSDGGLFRSRPAHSLPPGEDGRVEPYVDFAEFYRLWSVDHGEQSVVTAP
B6: TAB2 (transfected) (protein, UniProt Q9NYJ8 1-693)
chain: MAQGSHQIDFQVLHDLRQKFPEVPEVVVSRCMLQNNNNLDACCAVLSQESTRYLYGEGDLNFSDDSGISGLRNHMTSLNLDLQSQNIYHHGREGSRMNGSRTLTHSISDGQLQGGQSNSELFQQEPQTAPAQVPQGFNVFGMSSSSGASNSAPHLGFHLGSKGTSSLSQQTPRFNPIMVTLAPNIQTGRNTPTSLHIHGVPPPVLNSPQGNSIYIRPYITTPGGTTRQTQQHSGWVSQFNPMNPQQVYQPSQPGPWTTCPASNPLSHTSSQQPNQQGHQTSHVYMPISSPTTSQPPTIHSSGSSQSSAHSQYNIQNISTGPRKNQIEIKLEPPQRNNSSKLRSSGPRTSSTSSSVNSQTLNRNQPTVYIAASPPNTDELMSRSQPKVYISANAATGDEQVMRNQPTLFISTNSGASAASRNMSGQVSMGPAFIHHHPPKSRAIGNNSATSPRVVVTQPNTKYTFKITVSPNKPPAVSPGVVSPTFELTNLLNHPDHYVETENIQHLTDPTLAHVDRISETRKLSMGSDDAAYTQALLVHQKARMERLQRELEIQKKKLDKLKSEVNEMENNLTRRRLKRSNSISQIPSLEEMQQLRSCNRQLQIDIDCLTKEIDLFQARGPHFNPSAIHNFYDNIGFVGPVPPKPKDQRSIIKTPKTQDTEDDEGAQWNCTACTFLNHPALIRCEQCEMPRHF

Assays:
HA-GSK3β K183R mutant = HA-GSK3β K183R mutant (UniProt P49841); test: co-IP; HEK293T cells transfected with the indicated combinations of expression plasmids (Fig. 5b,d,e: anti-Flag; Fig. 7a–c: anti-HA), western blotting; TAB1 or TAB2 with GSK3β tested with or without TAK1
HA-GSK3β (WT) [1] = biological target: HA-GSK3β (WT) (UniProt P49841); test: as above
HA-GSK3β (WT) [2] = biological target: HA-GSK3β (WT) (UniProt P49841); test: co-IP; HEK293T cells co-transfected with TRIF, TRAF6, TAK1 and GSK3β (WT or K183R) together; Fig. 5f (anti-Flag), Fig. 7d (anti-HA), Fig. 7e (anti-Flag), western blotting
Flag-TRAF6 = biological target: T1, Flag-TRAF6 (UniProt P70196); test: co-IP; HEK293T cells transfected with the indicated combinations of expression plasmids (Fig. 5b,d,e: anti-Flag; Fig. 7a–c: anti-HA), western blotting; TAB1 or TAB2 with GSK3β tested with or without TAK1
T1 sequence: B1 chain

TRIF (transfected) = TRIF (transfected) (UniProt Q8IUC6); test: co-IP; HEK293T cells co-transfected with TRIF, TRAF6, TAK1 and GSK3β (WT or K183R) together; Fig. 5f (anti-Flag), Fig. 7d (anti-HA), Fig. 7e (anti-Flag), western blotting
Myc-TAK1 = biological target: T2, Myc-TAK1 (UniProt O43318); test: co-IP; cotransfection studies in mammalian cells; GSK3β and TAK1 each as the protein whose associates were examined; Supplementary Fig. 11a,b (not shown)
T2 sequence: B3 chain

[3] = biological target: Glycogen synthase kinase 3β (GSK3β), endogenous (mouse (endogenous in MEFs and BMDMs)) (UniProt Q9WV60); test: co-IP; BMDMs stimulated with 10 μg/ml poly I:C for 10 min; immunoprecipitation with an anti-GSK3β antibody, western blotting
HA-GSK3β (WT) [4] = biological target: HA-GSK3β (WT) (UniProt P49841); test: co-IP; cotransfection studies in mammalian cells; GSK3β and TAK1 each as the protein whose associates were examined; Supplementary Fig. 11a,b (not shown)

Molecule | binding (HA-GSK3β (WT) [1]) | binding (HA-GSK3β (WT) [2]) | binding (Flag-TRAF6) | binding (TRIF (transfected)) | also measured
TRIF (transfected) (from UniProt Q8IUC6 1-712) | binds | binds | – | – | binding (HA-GSK3β K183R mutant): binds
HA-GSK3β (WT) (from UniProt P49841 1-420) (enzyme) | – | – | binds | binds | binding (Myc-TAK1): binds
B1 | – | – | – | – | binding [3]: binds
B2 | – | – | – | – | binding [3]: binds
B3 | binds | binds | binds | binds | binding (HA-GSK3β K183R mutant): binds; binding (HA-GSK3β (WT) [4]): binds
B4 | binds | binds | – | binds | binding (HA-GSK3β (WT) [4]): binds; binding (Myc-TAK1): binds
B5 | – | – | binds | – | –
B6 | – | – | binds | – | –
